These are yes or no findings as the source states them, for the method shown. Some entries that bind do so weakly or less than the wild type.
Target: HLA-DR15 complex (HLA-DRA1*01:01 + HLA-DRB1*15:01) (human)
Assay: ProImmune REVEAL MHC class II-peptide binding assay

Amino acid sequences for entries named in this document (tags omitted). A change or cut given only in a name is not applied to a line headed by its entry.
UniProt P62318: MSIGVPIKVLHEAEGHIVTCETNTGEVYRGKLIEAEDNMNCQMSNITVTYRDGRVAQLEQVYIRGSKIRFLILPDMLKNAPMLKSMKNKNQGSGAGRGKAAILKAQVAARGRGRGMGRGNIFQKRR

SmD3:43-57 peptide (from UniProt P62318 43-57)
binding: binds

From patent US20230270859A1, “COMPOSITIONS AND METHODS FOR TREATING LUPUS” (MONASH UNIVERSITY, priority 2020, published 2023)
